Results on 1 molecule are retold here after article PMC8579450.

In this test the target is T1, Lysine Methyltransferase 5A (KMT5A) (human (endogenous in HUVECs)) (UniProt Q9NQR1).
T1 sequence: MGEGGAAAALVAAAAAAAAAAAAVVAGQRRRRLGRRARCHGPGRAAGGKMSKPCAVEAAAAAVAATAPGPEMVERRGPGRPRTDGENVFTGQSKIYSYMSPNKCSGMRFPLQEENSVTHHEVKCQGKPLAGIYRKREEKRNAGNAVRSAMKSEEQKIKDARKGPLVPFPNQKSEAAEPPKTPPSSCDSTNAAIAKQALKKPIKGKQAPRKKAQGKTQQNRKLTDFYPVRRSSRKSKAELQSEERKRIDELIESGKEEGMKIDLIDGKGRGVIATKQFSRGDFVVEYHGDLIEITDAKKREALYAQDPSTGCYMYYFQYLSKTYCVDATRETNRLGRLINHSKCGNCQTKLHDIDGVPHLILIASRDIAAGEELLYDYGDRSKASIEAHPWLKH
Kind of test: co-IP; endogenous immunoprecipitation from HUVEC whole-cell lysates with anti-KMT5A antibody, anti-RFX1 antibody or IgG, protein A/G Dynabeads, 4 °C overnight; western blot.

Results are given in words; binding and its absence hold for the method and conditions named. In cells and extracts the contact can be indirect. Some entries that bind do so weakly or less than the wild type.

B1: regulatory factor X1 (RFX1) (protein, UniProt P22670 1-979)
chain: MATQAYTELQAAPPPSQPPQAPPQAQPQPPPPPPPAAPQPPQPPTAAATPQPQYVTELQSPQPQAQPPGGQKQYVTELPAVPAPSQPTGAPTPSPAPQQYIVVTVSEGAMRASETVSEASPGSTASQTGVPTQVVQQVQGTQQRLLVQTSVQAKPGHVSPLQLTNIQVPQQALPTQRLVVQSAAPGSKGGQVSLTVHGTQQVHSPPEQSPVQANSSSSKTAGAPTGTVPQQLQVHGVQQSVPVTQERSVVQATPQAPKPGPVQPLTVQGLQPVHVAQEVQQLQQVPVPHVYSSQVQYVEGGDASYTASAIRSSTYSYPETPLYTQTASTSYYEAAGTATQVSTPATSQAVASSGSMPMYVSGSQVVASSTSTGAGASNSSGGGGSGGGGGGGGGGGGGGSGSTGGGGSGAGTYVIQGGYMLGSASQSYSHTTRASPATVQWLLDNYETAEGVSLPRSTLYCHYLLHCQEQKLEPVNAASFGKLIRSVFMGLRTRRLGTRGNSKYHYYGLRIKASSPLLRLMEDQQHMAMRGQPFSQKQRLKPIQKMEGMTNGVAVGQQPSTGLSDISAQVQQYQQFLDASRSLPDFTELDLQGKVLPEGVGPGDIKAFQVLYREHCEAIVDVMVNLQFTLVETLWKTFWRYNLSQPSEAPPLAVHDEAEKRLPKAILVLLSKFEPVLQWTKHCDNVLYQGLVEILIPDVLRPIPSALTQAIRNFAKSLESWLTHAMVNIPEEMLRVKVAAAGAFAQTLRRYTSLNHLAQAARAVLQNTAQINQMLSDLNRVDFANVQEQASWVCRCEDRVVQRLEQDFKVTLQQQNSLEQWAAWLDGVVSQVLKPYQGSAGFPKAAKLFLLKWSFYSSMVIRDLTLRSAASFGSFHLIRLLYDEYMYYLIEHRVAQAKGETPIAVMGEFANLATSLNPLDPDKDEEEEEEEESEDELPQDISLAAGGESPALGPETLEPPAKLARTDARGLFVQALPSS
B1: the binding entry is reported as “binds”.
